In publication PMC12602876:
These are yes or no findings as the source states them, for the method shown. For some assays here: In cells and extracts the contact can be indirect. Some entries that bind do so weakly or less than the wild type.

Sequences of proteins named here, by UniProt entry; tags and fusion partners are left off. Residues count along the entry.
UniProt Q5ZZ40: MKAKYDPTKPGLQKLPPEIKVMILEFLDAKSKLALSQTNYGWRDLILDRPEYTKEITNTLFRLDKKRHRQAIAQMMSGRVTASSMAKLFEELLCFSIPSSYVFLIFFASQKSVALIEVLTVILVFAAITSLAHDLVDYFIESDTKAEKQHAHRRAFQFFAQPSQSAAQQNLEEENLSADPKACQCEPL
UniProt P11021, residues 19-654: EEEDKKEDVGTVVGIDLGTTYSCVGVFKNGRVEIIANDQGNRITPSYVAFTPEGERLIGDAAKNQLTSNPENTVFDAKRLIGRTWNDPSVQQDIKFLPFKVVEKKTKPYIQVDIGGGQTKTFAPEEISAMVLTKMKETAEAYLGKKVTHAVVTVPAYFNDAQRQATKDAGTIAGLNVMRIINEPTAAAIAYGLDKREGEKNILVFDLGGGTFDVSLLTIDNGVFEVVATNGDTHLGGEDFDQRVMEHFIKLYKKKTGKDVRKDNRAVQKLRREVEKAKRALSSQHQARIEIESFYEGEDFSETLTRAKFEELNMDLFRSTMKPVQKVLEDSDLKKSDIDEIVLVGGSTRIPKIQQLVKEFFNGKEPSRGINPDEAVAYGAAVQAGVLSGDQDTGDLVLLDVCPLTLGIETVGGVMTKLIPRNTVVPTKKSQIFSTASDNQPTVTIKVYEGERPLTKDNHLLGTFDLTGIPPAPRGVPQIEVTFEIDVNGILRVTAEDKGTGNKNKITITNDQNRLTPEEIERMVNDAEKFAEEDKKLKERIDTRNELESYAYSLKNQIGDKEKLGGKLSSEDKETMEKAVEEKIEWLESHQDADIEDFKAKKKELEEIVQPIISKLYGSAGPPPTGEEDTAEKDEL

Tests used:
[1] = biological target: 3 × Flag-tagged LegU1 (expressed in HEK293T cells) (Legionella pneumophila) (UniProt Q5ZZ40); test: co-IP
[2] = biological target: N-terminally 3 × Flag-tagged LegU1 (expressed in L. pneumophila) (Legionella pneumophila) (UniProt Q5ZZ40); test: pull-down; both purified

Substance | binding [1] | binding [2]
HA-tagged BiP (expressed in HEK293T cells) (from UniProt P11021 19-654) | binds | 
His-tagged BiP (purified from E. coli) (from UniProt P11021 19-654) |  | binds
